Reference: the supplement of paper PMC12067093, “Discovery and optimisation of a covalent ligand for TRIM25 and its application to targeted protein ubiquitination” (Chemical Science, 2025)
Some of the results follow.

Amino acid sequences for entries named in this document (tags omitted). A change or cut given only in a name is not applied to a line headed by its entry.
UniProt Q9BUJ2: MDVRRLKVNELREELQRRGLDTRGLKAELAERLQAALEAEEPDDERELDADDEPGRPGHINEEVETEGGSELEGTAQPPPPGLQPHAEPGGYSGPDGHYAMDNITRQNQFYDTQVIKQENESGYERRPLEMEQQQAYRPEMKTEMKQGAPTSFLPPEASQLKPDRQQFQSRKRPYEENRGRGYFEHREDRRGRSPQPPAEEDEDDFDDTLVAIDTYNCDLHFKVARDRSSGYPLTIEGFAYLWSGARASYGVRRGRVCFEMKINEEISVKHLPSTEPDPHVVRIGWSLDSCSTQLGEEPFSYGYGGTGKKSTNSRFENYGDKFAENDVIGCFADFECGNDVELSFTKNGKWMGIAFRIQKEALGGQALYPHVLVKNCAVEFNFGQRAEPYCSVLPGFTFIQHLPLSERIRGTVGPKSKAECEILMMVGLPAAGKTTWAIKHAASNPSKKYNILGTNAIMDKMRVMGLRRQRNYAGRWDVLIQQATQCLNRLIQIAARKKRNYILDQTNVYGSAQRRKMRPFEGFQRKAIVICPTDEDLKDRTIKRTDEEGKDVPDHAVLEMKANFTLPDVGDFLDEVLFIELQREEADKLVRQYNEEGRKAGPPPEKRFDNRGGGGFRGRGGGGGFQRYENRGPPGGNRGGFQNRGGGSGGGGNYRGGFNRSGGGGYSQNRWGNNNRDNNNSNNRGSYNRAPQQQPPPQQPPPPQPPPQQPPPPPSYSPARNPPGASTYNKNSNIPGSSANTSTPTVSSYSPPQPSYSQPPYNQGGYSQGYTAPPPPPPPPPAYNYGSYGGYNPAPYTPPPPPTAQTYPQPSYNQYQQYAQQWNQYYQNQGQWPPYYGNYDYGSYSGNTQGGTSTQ
UniProt O14979: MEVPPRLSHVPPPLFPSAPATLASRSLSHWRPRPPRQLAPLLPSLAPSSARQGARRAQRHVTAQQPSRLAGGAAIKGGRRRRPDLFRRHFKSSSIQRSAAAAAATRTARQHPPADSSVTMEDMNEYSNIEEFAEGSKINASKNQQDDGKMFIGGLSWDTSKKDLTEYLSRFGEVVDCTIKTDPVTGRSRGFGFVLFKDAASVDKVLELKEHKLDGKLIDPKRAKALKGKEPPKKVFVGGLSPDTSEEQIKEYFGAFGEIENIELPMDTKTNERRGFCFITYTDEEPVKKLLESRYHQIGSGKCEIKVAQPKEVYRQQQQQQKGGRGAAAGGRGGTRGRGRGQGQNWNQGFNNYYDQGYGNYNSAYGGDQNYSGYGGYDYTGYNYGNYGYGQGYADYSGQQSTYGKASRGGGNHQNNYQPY
UniProt Q92598: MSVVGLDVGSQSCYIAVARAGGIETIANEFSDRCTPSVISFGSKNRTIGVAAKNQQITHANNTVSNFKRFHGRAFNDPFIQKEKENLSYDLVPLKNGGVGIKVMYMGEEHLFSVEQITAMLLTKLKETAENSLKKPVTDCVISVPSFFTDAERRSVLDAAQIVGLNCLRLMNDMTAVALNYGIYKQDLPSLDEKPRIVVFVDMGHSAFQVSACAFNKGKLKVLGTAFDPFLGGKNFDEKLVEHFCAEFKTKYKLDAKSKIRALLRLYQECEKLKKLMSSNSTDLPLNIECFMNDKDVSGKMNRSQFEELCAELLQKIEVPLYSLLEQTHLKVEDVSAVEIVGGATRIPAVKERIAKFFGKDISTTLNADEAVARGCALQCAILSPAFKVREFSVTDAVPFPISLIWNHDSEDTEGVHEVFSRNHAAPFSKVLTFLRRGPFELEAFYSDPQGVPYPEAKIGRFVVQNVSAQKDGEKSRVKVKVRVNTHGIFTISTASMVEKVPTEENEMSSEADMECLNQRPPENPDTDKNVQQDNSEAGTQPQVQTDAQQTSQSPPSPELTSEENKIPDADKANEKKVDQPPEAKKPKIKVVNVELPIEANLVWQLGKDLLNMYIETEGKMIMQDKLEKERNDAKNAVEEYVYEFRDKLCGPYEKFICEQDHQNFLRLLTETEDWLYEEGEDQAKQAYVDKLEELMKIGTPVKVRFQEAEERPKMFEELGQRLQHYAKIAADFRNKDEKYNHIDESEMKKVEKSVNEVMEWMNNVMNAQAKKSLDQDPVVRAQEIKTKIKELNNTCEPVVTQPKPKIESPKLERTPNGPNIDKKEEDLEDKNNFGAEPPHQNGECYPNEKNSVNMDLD
UniProt O60921: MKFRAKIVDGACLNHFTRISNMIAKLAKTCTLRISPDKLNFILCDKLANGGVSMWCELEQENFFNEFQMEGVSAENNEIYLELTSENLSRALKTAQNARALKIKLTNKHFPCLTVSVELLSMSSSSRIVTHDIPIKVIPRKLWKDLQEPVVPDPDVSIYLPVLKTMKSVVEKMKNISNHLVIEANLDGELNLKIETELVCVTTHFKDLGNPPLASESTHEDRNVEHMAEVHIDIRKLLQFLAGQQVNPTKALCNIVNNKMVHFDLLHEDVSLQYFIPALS
UniProt P22626: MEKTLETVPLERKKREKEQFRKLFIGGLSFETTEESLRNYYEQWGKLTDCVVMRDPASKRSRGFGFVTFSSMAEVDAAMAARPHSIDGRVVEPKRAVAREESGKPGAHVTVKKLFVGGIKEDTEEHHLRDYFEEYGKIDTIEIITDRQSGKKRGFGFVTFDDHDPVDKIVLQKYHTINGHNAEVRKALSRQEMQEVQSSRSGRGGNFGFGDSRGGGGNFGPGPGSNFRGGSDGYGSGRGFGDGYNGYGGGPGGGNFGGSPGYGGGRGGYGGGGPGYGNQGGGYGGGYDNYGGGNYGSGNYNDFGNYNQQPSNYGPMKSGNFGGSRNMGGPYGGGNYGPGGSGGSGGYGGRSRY
UniProt Q1KMD3: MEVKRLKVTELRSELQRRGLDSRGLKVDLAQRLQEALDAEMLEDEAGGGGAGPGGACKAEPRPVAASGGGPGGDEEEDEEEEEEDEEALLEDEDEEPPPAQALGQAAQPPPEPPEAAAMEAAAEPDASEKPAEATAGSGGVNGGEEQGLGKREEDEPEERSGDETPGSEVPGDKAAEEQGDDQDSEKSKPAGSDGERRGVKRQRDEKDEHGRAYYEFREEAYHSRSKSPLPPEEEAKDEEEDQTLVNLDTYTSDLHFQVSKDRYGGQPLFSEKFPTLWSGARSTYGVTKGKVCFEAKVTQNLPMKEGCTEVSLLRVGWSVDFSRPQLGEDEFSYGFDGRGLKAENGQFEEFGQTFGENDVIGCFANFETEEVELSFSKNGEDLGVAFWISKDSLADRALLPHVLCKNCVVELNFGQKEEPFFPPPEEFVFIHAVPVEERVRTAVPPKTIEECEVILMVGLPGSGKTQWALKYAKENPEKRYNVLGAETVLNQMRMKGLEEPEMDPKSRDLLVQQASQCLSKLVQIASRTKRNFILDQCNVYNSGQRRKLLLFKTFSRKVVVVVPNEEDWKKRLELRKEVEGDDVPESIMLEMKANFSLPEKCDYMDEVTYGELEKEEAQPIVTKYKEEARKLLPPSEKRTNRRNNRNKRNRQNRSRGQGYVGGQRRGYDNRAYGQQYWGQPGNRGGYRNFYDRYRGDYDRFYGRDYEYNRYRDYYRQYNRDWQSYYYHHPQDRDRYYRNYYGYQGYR
UniProt P51991: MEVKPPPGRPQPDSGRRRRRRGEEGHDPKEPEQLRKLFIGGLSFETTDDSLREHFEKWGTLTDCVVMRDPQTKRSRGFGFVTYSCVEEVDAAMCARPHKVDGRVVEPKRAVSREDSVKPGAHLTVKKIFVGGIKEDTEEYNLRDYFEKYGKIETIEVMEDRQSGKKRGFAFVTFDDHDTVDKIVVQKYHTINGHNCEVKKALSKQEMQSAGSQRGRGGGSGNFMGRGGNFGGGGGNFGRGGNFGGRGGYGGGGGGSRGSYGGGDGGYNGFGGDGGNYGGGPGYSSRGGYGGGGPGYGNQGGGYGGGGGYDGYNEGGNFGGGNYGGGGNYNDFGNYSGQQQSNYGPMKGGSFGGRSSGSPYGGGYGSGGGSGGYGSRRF
UniProt P34932: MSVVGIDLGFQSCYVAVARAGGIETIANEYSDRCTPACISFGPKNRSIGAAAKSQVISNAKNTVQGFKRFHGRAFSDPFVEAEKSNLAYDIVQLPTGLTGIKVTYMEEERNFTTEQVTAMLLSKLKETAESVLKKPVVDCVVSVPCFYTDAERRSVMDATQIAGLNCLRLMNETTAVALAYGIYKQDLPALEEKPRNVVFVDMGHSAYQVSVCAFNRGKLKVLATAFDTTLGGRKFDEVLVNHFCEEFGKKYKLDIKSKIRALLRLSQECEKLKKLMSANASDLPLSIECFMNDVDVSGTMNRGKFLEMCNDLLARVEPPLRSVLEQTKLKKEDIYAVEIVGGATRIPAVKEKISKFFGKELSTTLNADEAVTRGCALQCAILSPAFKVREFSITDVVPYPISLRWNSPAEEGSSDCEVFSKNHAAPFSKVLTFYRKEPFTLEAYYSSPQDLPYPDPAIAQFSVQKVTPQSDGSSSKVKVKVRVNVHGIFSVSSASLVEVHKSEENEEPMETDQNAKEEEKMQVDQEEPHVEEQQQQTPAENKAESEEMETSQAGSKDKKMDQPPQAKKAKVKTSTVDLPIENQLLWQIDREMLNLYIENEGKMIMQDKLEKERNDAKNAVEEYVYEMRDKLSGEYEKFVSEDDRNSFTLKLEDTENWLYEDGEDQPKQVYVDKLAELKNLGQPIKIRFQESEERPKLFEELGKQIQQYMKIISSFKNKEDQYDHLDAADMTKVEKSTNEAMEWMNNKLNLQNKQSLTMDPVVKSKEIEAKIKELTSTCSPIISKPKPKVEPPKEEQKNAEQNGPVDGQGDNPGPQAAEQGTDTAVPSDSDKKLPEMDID
UniProt Q99714: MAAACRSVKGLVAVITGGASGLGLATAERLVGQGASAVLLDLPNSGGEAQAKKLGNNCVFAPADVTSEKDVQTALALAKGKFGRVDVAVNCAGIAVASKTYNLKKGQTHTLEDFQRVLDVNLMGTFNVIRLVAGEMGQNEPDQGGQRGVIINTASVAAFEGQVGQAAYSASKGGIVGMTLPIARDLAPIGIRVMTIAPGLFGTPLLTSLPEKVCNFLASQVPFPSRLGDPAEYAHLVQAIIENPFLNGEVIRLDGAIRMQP
UniProt P51659: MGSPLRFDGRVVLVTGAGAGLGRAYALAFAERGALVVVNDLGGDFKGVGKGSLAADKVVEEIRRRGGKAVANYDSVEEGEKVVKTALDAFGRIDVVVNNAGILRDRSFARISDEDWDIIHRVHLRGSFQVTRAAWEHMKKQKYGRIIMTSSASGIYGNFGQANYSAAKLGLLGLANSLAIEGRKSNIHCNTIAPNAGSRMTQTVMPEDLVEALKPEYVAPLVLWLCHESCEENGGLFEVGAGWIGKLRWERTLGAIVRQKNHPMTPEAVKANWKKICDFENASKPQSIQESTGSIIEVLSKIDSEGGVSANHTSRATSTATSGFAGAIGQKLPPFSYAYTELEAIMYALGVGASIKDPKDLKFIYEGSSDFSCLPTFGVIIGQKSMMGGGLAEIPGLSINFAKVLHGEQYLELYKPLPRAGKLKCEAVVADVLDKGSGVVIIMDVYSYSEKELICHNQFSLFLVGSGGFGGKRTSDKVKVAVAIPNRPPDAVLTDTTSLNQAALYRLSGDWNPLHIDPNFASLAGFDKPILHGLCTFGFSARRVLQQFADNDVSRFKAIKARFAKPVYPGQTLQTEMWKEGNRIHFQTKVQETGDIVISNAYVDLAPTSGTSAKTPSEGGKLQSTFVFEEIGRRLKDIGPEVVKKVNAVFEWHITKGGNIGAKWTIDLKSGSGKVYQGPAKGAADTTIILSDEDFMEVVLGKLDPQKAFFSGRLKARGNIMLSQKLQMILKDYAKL
UniProt Q9NZL4: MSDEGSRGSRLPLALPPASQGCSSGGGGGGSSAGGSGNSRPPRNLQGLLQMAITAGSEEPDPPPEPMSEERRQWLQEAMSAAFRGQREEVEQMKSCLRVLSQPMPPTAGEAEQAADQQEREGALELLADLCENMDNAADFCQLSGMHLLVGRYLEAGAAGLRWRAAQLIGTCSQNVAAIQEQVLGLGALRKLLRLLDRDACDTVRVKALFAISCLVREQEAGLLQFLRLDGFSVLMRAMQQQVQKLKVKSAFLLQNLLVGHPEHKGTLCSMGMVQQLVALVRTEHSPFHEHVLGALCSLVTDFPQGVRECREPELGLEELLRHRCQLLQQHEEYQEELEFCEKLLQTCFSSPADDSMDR

Compound: Cc1cc(ccc1-c1ccccc1)C(=O)N1CCCN(CC1)C(=O)CCl [compound 10]
Assay: probe-labelled cysteine peptide fold change vs DMSO (competition) (log2 fold change); higher = less target engagement (more negative = stronger competition)
Details: THP-1, incubation time: 4 h
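Also: competitive profiling in live THP-1 cells: cysteine peptides tagged with an iodoacetamide desthiobiotin (IA-DTB) probe, intensity after compound treatment relative to DMSO-treated cells.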

| Target | probe-labelled cysteine peptide fold change (10 µM) | probe-labelled cysteine peptide fold change (50 µM) |
| --- | --- | --- |
| HNRNPUL1_Q9BUJ2_377_NCAVEFNFGQR (UniProt Q9BUJ2) | 0.093 | 0.2 |
| HNRNPDL_O14979_277_GFCFITYTDEEPVK (UniProt O14979) | 0.258 | 0.0355 |
| HSPH1_Q92598_13_SVVGLDVGSQSCYIAVAR (UniProt Q92598) | -0.0126 | 0.151 |
| HUS1_O60921_253_ALCNIVNNK (UniProt O60921) | -0.05 | -0.0811 |
| HNRNPA2B1_P22626_50_LTDCVVMRDPASKR (UniProt P22626) | -0.0144 | -0.424 |
| HNRNPUL2_Q1KMD3_405_ALLPHVLCK (UniProt Q1KMD3) | 0.0881 | -0.103 |
| HNRNPA3_P51991_64_WGTLTDCVVMRDPQTK (UniProt P51991) | 0.0469 | -0.0934 |
| HNRNPA3_P51991_94_GFGFVTYSCVEEVDAAMCARPHK (UniProt P51991) | -0.0321 | -0.229 |
| HNRNPUL1_Q9BUJ2_487_WDVLIQQATQCLNR (UniProt Q9BUJ2) | -0.168 | 0.18 |
| HSPA4_P34932_146_KPVVDCVVSVPCFYTDAER (UniProt P34932) | -0.0289 | 0.112 |
| HSD17B10_Q99714_58_KLGNNCVFAPADVTSEK (UniProt Q99714) | 0.0538 | 0.0693 |
| HNRNPUL2_Q1KMD3_57_LQEALDAEMLEDEAGGGGAGPGGACK (UniProt Q1KMD3) | -0.00448 | -0.306 |
| HSD17B4_P51659_455_ELICHNQFSLFLVGSGGFGGKR (UniProt P51659) | -0.205 | 0.0547 |
| HSPBP1_Q9NZL4_269_GTLCSMGMVQQLVALVR (UniProt Q9NZL4) | -0.0734 | 0.228 |
| HSP90AB1_P08238_366_VFIMDSCDELIPEYLNFIR (UniProt P08238) | -0.121 | -0.0474 |
| HSPA4_P34932_146_KPVVDCVVSVPCFYTDAERR (UniProt P34932) | 0.153 | -0.0976 |

Part of the list above, with each value named:
HSPH1_Q92598_13_SVVGLDVGSQSCYIAVAR (UniProt Q92598)
  probe-labelled cysteine peptide fold change (10 µM) = -0.0126; probe-labelled cysteine peptide fold change (50 µM) = 0.151
HNRNPUL2_Q1KMD3_405_ALLPHVLCK (UniProt Q1KMD3)
  probe-labelled cysteine peptide fold change (10 µM) = 0.0881; probe-labelled cysteine peptide fold change (50 µM) = -0.103
